In publication PMC5454954, “BDNF Binds Its Pro-Peptide with High Affinity and the Common Val66Met Polymorphism Attenuates the Interaction” (International Journal of Molecular Sciences, 2017):
Substitutions are numbered along the chain they refer to. No constants are given. Whether binding was seen depends on the method and setting. Binding calls can cover weak binding; strength is not graded here. For some assays here: In cells and extracts the contact can be indirect.

Legend:
[1] = biological target: T1, recombinant BDNF pro-peptide with the Met substitution at position 66 (Val66Met) (human) (UniProt P23560); test: SPR; as a1, but HBS-EP adjusted to pH 6.5 with HCl; BDNF 30 nM (Figure 2c); both purified
T1 sequence: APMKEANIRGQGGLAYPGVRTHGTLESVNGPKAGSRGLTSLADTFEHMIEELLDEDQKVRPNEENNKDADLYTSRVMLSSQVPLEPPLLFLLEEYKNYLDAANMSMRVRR

[2] = biological target: T2, recombinant wild-type BDNF pro-peptide (Val at position 66) (human) (UniProt P23560); test: as above
T2 sequence: T1 sequence with M48V

[3] = biological target: T1, recombinant BDNF pro-peptide with the Met substitution at position 66 (Val66Met) (human); test: SPR; as a1, but HBS-EP adjusted to pH 7.0 with HCl; BDNF 30 nM (Figure 2c); both purified
[4] = biological target: T2, recombinant wild-type BDNF pro-peptide (Val at position 66) (human); test: as above
[5] = biological target: T2, recombinant wild-type BDNF pro-peptide (Val at position 66) (human); test: co-IP; BDNF and/or pro-peptide (100 ng/mL) incubated in a tube at 4 °C for 1 h in 10 mM HEPES pH 7.4, 150 mM NaCl, 3 mM EDTA, 0.005% NP-40; immunoprecipitated with rabbit proBDNF antiserum or monoclonal anti-BDNF mAb#9; Western blot; both purified

- binding [1]: binds
- binding [2]: binds
- binding [3]: binds
- binding [4]: binds
- binding [5]: binds
Substance: brain-derived neurotrophic factor (BDNF), recombinant human (ligand)
